The text below walks through data of PMC7532413.

Chains of the proteins cited; added tags and fusions are not shown.
UniProt P09429: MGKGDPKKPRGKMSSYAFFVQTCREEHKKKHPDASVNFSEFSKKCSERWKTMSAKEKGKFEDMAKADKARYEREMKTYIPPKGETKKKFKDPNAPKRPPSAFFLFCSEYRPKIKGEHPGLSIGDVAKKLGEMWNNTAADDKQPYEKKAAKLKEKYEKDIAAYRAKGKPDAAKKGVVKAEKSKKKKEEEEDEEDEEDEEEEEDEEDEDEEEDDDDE
UniProt Q9GZX7: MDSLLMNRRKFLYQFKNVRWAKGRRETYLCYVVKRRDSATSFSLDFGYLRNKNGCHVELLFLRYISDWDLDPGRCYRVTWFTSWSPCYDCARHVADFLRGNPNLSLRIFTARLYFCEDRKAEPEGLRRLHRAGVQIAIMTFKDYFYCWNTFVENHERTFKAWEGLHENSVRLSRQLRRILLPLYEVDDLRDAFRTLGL
UniProt Q13569: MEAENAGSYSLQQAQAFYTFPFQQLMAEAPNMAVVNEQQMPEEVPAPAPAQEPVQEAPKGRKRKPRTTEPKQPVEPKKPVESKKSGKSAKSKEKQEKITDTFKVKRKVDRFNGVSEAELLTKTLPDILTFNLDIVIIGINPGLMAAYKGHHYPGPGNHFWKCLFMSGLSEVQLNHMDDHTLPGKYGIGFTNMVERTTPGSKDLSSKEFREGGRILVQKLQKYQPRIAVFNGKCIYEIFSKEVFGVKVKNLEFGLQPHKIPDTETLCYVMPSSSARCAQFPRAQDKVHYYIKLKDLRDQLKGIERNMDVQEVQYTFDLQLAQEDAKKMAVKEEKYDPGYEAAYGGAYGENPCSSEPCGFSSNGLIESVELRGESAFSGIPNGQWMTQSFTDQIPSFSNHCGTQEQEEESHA

No constants are given. Whether binding was seen depends on the method and setting. Binding seen in cells or lysates may run through a third protein. Some results given as binding are weak or reduced against the parent protein; the word gives no strength.

This assay has as its target HMGB1 (UniProt P09429). The assay is described as follows: co-IP; Jurkat cell proteins extracted with RIPA lysis buffer; anti-HMGB1 antibody overnight at 4°C, protein A/G agarose beads 2 hours at room temperature; western blot with anti-TET2, anti-AID and anti-TDG.

For the substance “Activation-induced cytidine deaminase (from UniProt Q9GZX7 1-198) (enzyme)”, the binding entry is “binds”.

As to “thymine-DNA glycosylase (from UniProt Q13569 1-410) (enzyme)”, the binding result is reported as “binds”.
